# In the supplement of paper PMC10338343:
# ± gives the standard deviation. The list shows a part of the results, in another mix than the full data. Many entries were measured with a wide error.
# Test system: MIWI (PIWIL1) piRISC loaded with L1MC piRNA (30 nt)
# Assay: pre-steady-state target cleavage rate (min^-1); MIWI and MILI are mouse PIWI proteins and EfPiwi is from a freshwater sponge; tags in brackets are library labels; higher = faster piRNA-guided slicing of the target
# Settings: guide: L1MC piRNA 5'p-UAACUAAAUACUAUGCAAGCUGUAGGUCCU; auxiliary factor: 500 nM mouse GTSF1
# Summary of the method: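 A transcribed, DNA-blocked target RNA library (0.1 nM) and 1 nM active affinity-purified piRISC bearing one synthetic guide were incubated in HEPES–potassium acetate buffer at 33 °C for 0–8 or 0–960 min, either with or without 500 nM GTSF1 partner protein. Uncleaved targets were sequenced, normalised to depth and to weakly complementary targets, and pooled over three trials, with k3 capped at 0.0001 min^-1. The pre-steady-state cleavage rate was derived with a burst-and-steady-state fit.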
row,Sequence,pre-steady-state target cleavage rate
1,UCCUGCUACACGAUGCAUAGUAUUUAGUAA,0.396 ± 0.032
2,UCCUGGUUACAGCUUGCAUAGUAUUUAGUUA,1.01 ± 0.048
3,UCCUGGAUGUCGUUGCAUAGUAUGUUAGUUA,0.00189 ± 0.0066
4,UCCUGGUACAGCUUCGUUAGUAUUUAGAAA,0.000576 ± 0.012
5,UCCUGGAUGUGGAAGCAUAGUAUUUAGAAA,0.000167 ± 0.026
6,UCCUGGUCACAGCUUGCAUAGUAUUUAGUUA,0.818 ± 0.034
7,UCCUGGAUGUCGAUGCAUAGUUUUUAGUUA,0.00155 ± 0.0056
8,UCCUCCUACAGCUUGCAUAGAAAUUAGUUA,0.169 ± 0.019
9,UCCUGCUACAGCUUGCCUAGUAUUUAGUUA,0.886 ± 0.057
10,UCCUGGAUGUGCUUGCAUAGUAUUUGUUA,0.00205 ± 0.0063
11,UCCUGGUACAGCUUACAUAGUAUUUAGUUA,0.749 ± 0.056
12,UCCUGGAUGUGCUUGCAUAGUUAAUAGUUA,0.00394 ± 0.0044
13,UCCUGGAUGAGCUUCCAUAGUAUUAAGUUA,0.00472 ± 0.0052
14,UCCUGGAUGUCCUAGCAUAGUUUUUAGUUA,0.00464 ± 0.0046
15,UCCUGCUACUCGUUGCAUAGUAUUUAGAAA,0.0557 ± 0.014
16,UCCUGGAUGUGCUUCGUUAGUAUUUAGUUA,0.000882 ± 0.013
17,UCCUGGAUGUCGAUGCAUAGUAUUAUGUUA,0.000982 ± 0.0083
18,UCCUGGAACAGCUUGCAUAGUAUUUGGUUA,0.781 ± 0.041
19,UCCUGGAUGUCGAUGCAUAGUAUUUAGGUUA,0.00244 ± 0.0049
20,UCCUGCAACAGCUUGCAUUGUAUUUAGUUA,0.964 ± 0.068
21,UCCUGGAUGAGCUUGCAUAGAUAUUUAGUUA,0.00222 ± 0.0047
22,UCCUGGAUGUCCUUGCAUAGUAGUUUAGUUA,0.00343 ± 0.004
23,UCCUGGAUGAGCUACCAUAGUAUUUAGUAA,0.00153 ± 0.0068
24,UCCUGGAUGUGGUUGCAUUGUAUUUAGUUA,0.00195 ± 0.0067
25,UCCUGGAUGUCGAAGUAUAGUAUUUAGUUA,0.00237 ± 0.0037
26,UCCUGGAUGUCGAUGCAUAGUAUUUAGUAUA,0.00127 ± 0.0086
27,UCCUGGAUGUCGUUGGCAUAGUAUUUAGUUA,0.00315 ± 0.0042
28,UCCUGGAUCACGUUGCAUAGUAUUUAGAAA,0.003 ± 0.0034
29,UCCUGGAUGAGCUUGCAUAGGUAUUUAGUUA,0.00131 ± 0.0075

# Same assay, conditions: guide: L1MC piRNA 5'p-UAACUAAAUACUAUGCAAGCUGUAGGUCCU; auxiliary factor: none (no GTSF1)
row,Sequence,pre-steady-state target cleavage rate
1,UCCUGCUACACGAUGCAUAGUAUUUAGUAA,0.003 ± 0.0038
2,UCCUGGUUACAGCUUGCAUAGUAUUUAGUUA,0.0561 ± 0.011
3,UCCUGGAUGUCGUUGCAUAGUAUGUUAGUUA,0.00137 ± 0.0059
4,UCCUGGUACAGCUUCGUUAGUAUUUAGAAA,0.00015 ± 0.021
5,UCCUGGAUGUGGAAGCAUAGUAUUUAGAAA,0.00107 ± 0.0056
6,UCCUGGUCACAGCUUGCAUAGUAUUUAGUUA,0.0939 ± 0.022
7,UCCUGGAUGUCGAUGCAUAGUUUUUAGUUA,0.00133 ± 0.0055
8,UCCUGGAUGUCGAAGGCAUAGUAUUUAGUUA,0.00109 ± 0.0066
9,UCCUCCUACAGCUUGCAUAGAAAUUAGUUA,0.00268 ± 0.0024
10,UCCUGCUACAGCUUGCCUAGUAUUUAGUUA,0.0207 ± 0.0037
11,UCCUGGAUGUGCUUGCAUAGUAUUUGUUA,0.00167 ± 0.0048
12,UCCUCCUACAGCUUCCAUAGUAUUUAGAAA,0.000871 ± 0.0066
13,UCCUGGAUGUCGAAGCAAAGAAUUUAGUUA,0.000452 ± 0.012
14,UCCUGGAUGUCGAACCUUAGUAUUUAGAUA,0.000115 ± 0.018
15,UCCUGGAUGUGGUUGCAUAGUAUUUAGAUA,0.00115 ± 0.0078
16,UCCUGGAACAGCUUCCAUAGUAUUUACAAA,0.000705 ± 0.013
17,UCCUGGAUGUCGAUGCAUAGUGUUUAGUUA,0.00184 ± 0.0036
18,UCCUGGUACAGCUUACAUAGUAUUUAGUUA,0.0246 ± 0.0048

row,Sequence,pre-steady-state target cleavage rate
1,UCCUGGAUGUGCUUGCAUAGUUAAUAGUUA,0.00228 ± 0.0036
2,UCCUGGAUGAGCUUCCAUAGUAUUAAGUUA,0.000501 ± 0.0086
3,UCCUGGAUGUCCUAGCAUAGUUUUUAGUUA,0.00113 ± 0.0056
4,UCCUGCUACUCGUUGCAUAGUAUUUAGAAA,0.00186 ± 0.0036
5,UCCUGGAUGUGCUUCGUUAGUAUUUAGUUA,0.00046 ± 0.011
6,UCCUGGAACAGCUUGCAUAGUAUUUGGUUA,0.0538 ± 0.011
7,UCCUGGAUGUCGAUGCAUAGUAUUUAGGUUA,0.000828 ± 0.01
8,UCCUGGAUCAGCUUCCAAAGUAUUUAGUUA,0.00154 ± 0.0027
9,UCCUCCUACAGCUUGCAUAGAUUUUAGUAA,0.00138 ± 0.0041
10,UCCUGCAACAGCUUGCAUUGUAUUUAGUUA,0.0397 ± 0.01
11,UCCUGGAUGUCGAACCAUAGUAUUUAGAAA [g4:g15:cont:t1A],0.000289 ± 0.024
12,UCCUGGAUGAGCUUGCAUAGAUAUUUAGUUA,0.00178 ± 0.004
13,UCCUGGAUGUCCUUGCAUAGUAGUUUAGUUA,0.0018 ± 0.0041
14,UCCUGGAUGAGCUACCAUAGUAUUUAGUAA,0.000968 ± 0.0096
15,UCCUGGAUGUGGUUGCAUUGUAUUUAGUUA,0.0016 ± 0.0064
16,UCCUGGAUGUCGAAGUAUAGUAUUUAGUUA,0.000847 ± 0.0055
17,UCCUGGAUGUCGAUGCAUAGUAUUUAGUAUA,0.00194 ± 0.0045
18,UCCUGGAUGUCGUUGGCAUAGUAUUUAGUUA,0.00114 ± 0.0071
